At least one compound was matched to its structure with a doubt left.
What was measured:
[1] = test system: M. tuberculosis H37Rv; experiment: Killing of old stationary phase cells by PhoY2 inhibitors with TB drugs (CFU); assay type: cell-based; settings: one and two week exposure, 37° C.
Description: PhoY2 phosphatase activity inhibitors identified in the screen were tested for their ability to decrease persister formation in M. tuberculosis. […] After one and two week exposure, CFU (colony forming unit) was measured.

Amino acid sequences for entries named in this document (tags omitted). A change or cut given only in a name is not applied to a line headed by its entry.
UniProt P9WI95: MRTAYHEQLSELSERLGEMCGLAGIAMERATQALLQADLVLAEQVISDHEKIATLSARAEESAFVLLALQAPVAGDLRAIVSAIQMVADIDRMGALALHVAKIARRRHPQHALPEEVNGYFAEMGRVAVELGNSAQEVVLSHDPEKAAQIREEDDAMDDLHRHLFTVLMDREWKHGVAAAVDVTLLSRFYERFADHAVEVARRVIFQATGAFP
UniProt P0A9K7: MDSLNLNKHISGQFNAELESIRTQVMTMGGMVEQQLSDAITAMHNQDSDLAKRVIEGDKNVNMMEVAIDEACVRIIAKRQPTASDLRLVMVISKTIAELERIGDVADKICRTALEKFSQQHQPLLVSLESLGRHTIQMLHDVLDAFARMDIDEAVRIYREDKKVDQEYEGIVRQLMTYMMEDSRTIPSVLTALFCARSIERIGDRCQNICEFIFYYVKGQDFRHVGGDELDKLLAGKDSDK

[2] = target: PhoY2 (Mycobacterium tuberculosis, UniProt P9WI95); experiment: EnzChek phosphatase assay, FDA approved compound library screen; assay type: biochemical, M. tuberculosis; settings: 50 μM final concentration; 30 min, 60 min and overnight
Description: The FDA approved compound library consisting of about 3000 clinical compounds (50 μM final concentration) was screened for inhibitory activity for M. tuberculosis PhoU homolog PhoY2 for phosphatase activity using the EnzChek phosphatase assay kit in a 96 well plate format. The assay was run for 30 min, 60 min and overnight when the plates were read in a fluorescence plate reader (Perkin Elmer). Aurintricarboxylic acid, a known phosphatase inhibitor, was included as a positive control.

[3] = target: T1, PhoU (Escherichia coli, UniProt P0A9K7); experiment: PhoU phosphatase substrate specificity; assay type: biochemical, E. coli; settings: pH5, pH7 and pH8
T1 construct: His; made in house
Description: Different substrates for the PhoU phosphatase activity were tested. […] For PhoU, the substrates acetyl-P, carbamoyl-P, imido-di phosphate (imido-di-P), r-nitrophenyl phosphate (rNPP), β-Nicotinamide adenine dinucleotide phosphate (NADP), Glucose-1,6-bisphosphate (Glucose-1,6-bisP) were tested at pH5, pH7, and pH8 condition, as potential PhoU phosphatase activity.

CN(C)c1ccc(O)c2c1C[C@H]1C[C@H]3[C@H](N(C)C)C(O)=C(C(N)=O)C(=O)[C@@]3(O)C(O)=C1C2=O [Minocycline]
enhancement of INH, RIF or PZA activity [1]: could enhance the activity of INH, RIF or PZA

C[C@H]1c2cccc(O)c2C(=O)C2=C(O)[C@]3(O)C(=O)C(C(N)=O)=C(O)[C@@H](N(C)C)[C@@H]3[C@@H](O)[C@@H]21 [doxycycline]
inhibition of PhoY2 enzyme activity in library screen [2]: inhibit PhoY2 enzyme activity

O=P(O)(O)NP(=O)(O)O [imido-di-P, imido-di phosphate]
rank as PhoU phosphatase substrate [3]: poorest substrate

C=C1c2c(Cl)ccc(O)c2C(=O)C2=C(O)[C@]3(O)C(=O)C(C(N)=O)=C(O)[C@@H](N(C)C)[C@@H]3[C@@H](O)[C@H]12 [meclocycline]
inhibition of PhoY2 enzyme activity in library screen [2]: inhibit PhoY2 enzyme activity

— patent US20100210602A1, “PhoU (PerF), A PERSISTENCE SWITCH INVOLVED IN [sequence] FORMATION AND TOLERANCE TO MULTIPLE ANTIBIOTICS AND [sequence] AS A DRUG TARGET FOR [sequence] BACTERIA” (priority 2006, published 2010)
